Reference: doi:10.1101/2021.11.02.466916
Results are given in words; binding and its absence hold for the method and conditions named. Some binding calls cover weakened binding; strength is not graded here.

By UniProt entry, the sequences of proteins in these tests, tags left out.
UniProt P38903: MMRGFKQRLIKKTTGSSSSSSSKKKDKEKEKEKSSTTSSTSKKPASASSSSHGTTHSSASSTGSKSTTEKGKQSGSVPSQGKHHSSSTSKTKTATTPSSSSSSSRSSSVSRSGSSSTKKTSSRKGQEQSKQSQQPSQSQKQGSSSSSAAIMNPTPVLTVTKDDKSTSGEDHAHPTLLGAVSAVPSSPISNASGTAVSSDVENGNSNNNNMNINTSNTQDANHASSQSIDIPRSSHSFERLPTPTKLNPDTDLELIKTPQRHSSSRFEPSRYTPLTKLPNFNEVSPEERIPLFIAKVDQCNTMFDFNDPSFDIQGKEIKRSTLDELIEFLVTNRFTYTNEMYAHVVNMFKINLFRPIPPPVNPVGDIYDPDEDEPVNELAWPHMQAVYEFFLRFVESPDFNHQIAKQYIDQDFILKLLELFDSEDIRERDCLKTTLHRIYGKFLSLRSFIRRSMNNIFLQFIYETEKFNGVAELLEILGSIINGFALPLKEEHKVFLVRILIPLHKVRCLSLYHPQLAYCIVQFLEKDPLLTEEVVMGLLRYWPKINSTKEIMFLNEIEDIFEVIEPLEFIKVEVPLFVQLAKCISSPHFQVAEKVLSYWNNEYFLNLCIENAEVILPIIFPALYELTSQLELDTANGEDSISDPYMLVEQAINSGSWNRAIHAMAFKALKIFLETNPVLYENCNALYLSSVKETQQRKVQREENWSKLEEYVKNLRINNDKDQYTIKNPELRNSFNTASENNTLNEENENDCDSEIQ

T1: Dpb11 (S. cerevisiae) (UniProt P47027)
T1 sequence: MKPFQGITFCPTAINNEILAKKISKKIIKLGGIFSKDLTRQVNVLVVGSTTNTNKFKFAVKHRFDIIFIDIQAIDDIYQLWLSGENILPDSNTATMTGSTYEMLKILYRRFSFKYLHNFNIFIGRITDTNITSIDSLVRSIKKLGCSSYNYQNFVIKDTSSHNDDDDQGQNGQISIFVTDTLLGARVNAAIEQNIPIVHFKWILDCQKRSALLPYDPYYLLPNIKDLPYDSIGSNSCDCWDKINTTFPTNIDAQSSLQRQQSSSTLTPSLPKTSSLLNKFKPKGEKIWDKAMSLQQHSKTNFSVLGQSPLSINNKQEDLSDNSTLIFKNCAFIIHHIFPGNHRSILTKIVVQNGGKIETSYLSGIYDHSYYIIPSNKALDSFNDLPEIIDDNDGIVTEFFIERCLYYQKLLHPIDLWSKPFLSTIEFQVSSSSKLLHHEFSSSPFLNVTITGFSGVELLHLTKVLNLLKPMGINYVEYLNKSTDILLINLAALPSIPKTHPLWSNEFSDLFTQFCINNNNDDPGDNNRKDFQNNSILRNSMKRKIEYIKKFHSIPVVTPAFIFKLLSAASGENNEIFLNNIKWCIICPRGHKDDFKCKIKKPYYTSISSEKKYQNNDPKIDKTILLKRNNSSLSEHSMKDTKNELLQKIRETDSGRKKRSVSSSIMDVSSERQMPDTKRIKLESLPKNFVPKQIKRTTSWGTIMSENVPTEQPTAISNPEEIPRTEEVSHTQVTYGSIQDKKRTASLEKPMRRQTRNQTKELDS


Columns and labels:
[1] = biological target: Rts1 (S. cerevisiae) (UniProt P38903); assay: two-hybrid
[2] = biological target: T1, Dpb11 (S. cerevisiae); assay: two-hybrid

Binder	binding [1]	binding [2]
Sld3 (protein, UniProt P53135 1-668) METWEVIASVKEATKGLDLSLDHPLIIKSEDVPSNILQLLQQKNRRQLKHICMKSRKEYFLLEEYGPGFWVKWPYNYFNGYSLPERRTEVVTTVERERAKRETLKTWDELKFKELLHLWSEEPKGSCKLEKDKDLKLDMNPPDMKGESKINDYYSDPKEYIESKYYDALFSIHTPLAYFVKSNLVRLKNTCRTKYGSDSYKIAYQAMLQKFLLSIVQFKDRHDNRLLLEPFSSPIADEKRKNCLTKFVIQDENKNSSTIADLCVVLKSREIKLQILLLLEIIGLNDLDWNFRDFEKKYKLKLKKRSLNLTKKGLVRRRSKKKTSEKDKGIERITTSLDYCEQLDLYLDRACILDILLSSETPNPDAIEASNGTIQEHKKNILDKSKEASLVGFINYVLIPYFNKKVPHAVEFIIQKLKGPSMRPKRALKKVNDSTNVSSPNTVETYNRLSTSQRASRSSIINSVPSSPALRRVDANLFSRKSIASPTPELLNSRTNSNLNEFLESETRSLKRPSQLGRTKSDLTMNHLQKRQFSVSDLSTTRVPNSSTITLKTPFSHSTINAYKTMNNSFRRVGKRKDINETIRLHERVDSEENVQVQATPAVKKRTVTPNKKAQLQSIIESPLNFKDDDTHEGRKNTSNITSTPTNKPPENSSKRRVRRRLFAPEST	binds	binds
Sld3-R (Sld3 with L616A and I619A in the Rts1 binding consensus) (protein, UniProt P53135 1-668) METWEVIASVKEATKGLDLSLDHPLIIKSEDVPSNILQLLQQKNRRQLKHICMKSRKEYFLLEEYGPGFWVKWPYNYFNGYSLPERRTEVVTTVERERAKRETLKTWDELKFKELLHLWSEEPKGSCKLEKDKDLKLDMNPPDMKGESKINDYYSDPKEYIESKYYDALFSIHTPLAYFVKSNLVRLKNTCRTKYGSDSYKIAYQAMLQKFLLSIVQFKDRHDNRLLLEPFSSPIADEKRKNCLTKFVIQDENKNSSTIADLCVVLKSREIKLQILLLLEIIGLNDLDWNFRDFEKKYKLKLKKRSLNLTKKGLVRRRSKKKTSEKDKGIERITTSLDYCEQLDLYLDRACILDILLSSETPNPDAIEASNGTIQEHKKNILDKSKEASLVGFINYVLIPYFNKKVPHAVEFIIQKLKGPSMRPKRALKKVNDSTNVSSPNTVETYNRLSTSQRASRSSIINSVPSSPALRRVDANLFSRKSIASPTPELLNSRTNSNLNEFLESETRSLKRPSQLGRTKSDLTMNHLQKRQFSVSDLSTTRVPNSSTITLKTPFSHSTINAYKTMNNSFRRVGKRKDINETIRLHERVDSEENVQVQATPAVKKRTVTPNKKAQAQSAIESPLNFKDDDTHEGRKNTSNITSTPTNKPPENSSKRRVRRRLFAPEST	no binding	binds
